Experimental data reported in the supplement of paper PMC10849652.
This is one part of the list.

Sequences of proteins named here, by UniProt entry; tags and fusion partners are left off. A change or cut given only in a name is not applied to a line headed by its entry.
UniProt P43487, whole entry, looked up: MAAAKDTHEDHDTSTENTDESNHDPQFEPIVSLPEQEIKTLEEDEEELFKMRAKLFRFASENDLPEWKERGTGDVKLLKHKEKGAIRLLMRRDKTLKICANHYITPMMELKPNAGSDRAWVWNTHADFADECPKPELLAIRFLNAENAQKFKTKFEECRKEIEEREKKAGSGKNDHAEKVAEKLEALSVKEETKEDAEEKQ
UniProt P52306: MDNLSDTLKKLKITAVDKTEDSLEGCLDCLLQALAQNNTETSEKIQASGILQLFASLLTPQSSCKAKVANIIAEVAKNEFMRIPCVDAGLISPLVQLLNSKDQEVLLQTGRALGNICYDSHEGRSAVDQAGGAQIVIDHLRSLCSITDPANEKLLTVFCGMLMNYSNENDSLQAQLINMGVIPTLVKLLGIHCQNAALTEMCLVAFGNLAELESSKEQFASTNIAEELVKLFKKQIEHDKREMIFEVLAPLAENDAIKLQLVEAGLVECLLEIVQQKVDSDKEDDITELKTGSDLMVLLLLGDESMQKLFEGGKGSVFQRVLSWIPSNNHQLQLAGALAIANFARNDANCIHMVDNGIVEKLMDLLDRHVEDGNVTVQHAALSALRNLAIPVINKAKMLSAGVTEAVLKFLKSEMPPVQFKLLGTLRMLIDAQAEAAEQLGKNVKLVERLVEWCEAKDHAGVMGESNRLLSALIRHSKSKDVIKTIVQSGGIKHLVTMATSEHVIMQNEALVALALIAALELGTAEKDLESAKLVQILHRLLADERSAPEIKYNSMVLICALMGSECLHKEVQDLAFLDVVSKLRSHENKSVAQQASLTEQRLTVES
UniProt Q6K0P9: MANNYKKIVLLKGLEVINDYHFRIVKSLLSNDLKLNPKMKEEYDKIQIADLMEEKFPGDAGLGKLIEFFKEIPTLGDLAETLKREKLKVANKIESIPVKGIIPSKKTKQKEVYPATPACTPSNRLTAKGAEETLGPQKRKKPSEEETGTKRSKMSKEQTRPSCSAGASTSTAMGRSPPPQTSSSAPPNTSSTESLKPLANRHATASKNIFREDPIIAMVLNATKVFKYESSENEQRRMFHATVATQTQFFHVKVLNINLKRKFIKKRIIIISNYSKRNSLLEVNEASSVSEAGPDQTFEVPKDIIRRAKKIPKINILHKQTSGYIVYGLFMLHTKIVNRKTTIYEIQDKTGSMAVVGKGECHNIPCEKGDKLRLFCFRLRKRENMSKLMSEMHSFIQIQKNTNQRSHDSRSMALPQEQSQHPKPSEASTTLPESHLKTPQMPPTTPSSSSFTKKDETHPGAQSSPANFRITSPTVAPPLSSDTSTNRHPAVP
UniProt Q8TBN0: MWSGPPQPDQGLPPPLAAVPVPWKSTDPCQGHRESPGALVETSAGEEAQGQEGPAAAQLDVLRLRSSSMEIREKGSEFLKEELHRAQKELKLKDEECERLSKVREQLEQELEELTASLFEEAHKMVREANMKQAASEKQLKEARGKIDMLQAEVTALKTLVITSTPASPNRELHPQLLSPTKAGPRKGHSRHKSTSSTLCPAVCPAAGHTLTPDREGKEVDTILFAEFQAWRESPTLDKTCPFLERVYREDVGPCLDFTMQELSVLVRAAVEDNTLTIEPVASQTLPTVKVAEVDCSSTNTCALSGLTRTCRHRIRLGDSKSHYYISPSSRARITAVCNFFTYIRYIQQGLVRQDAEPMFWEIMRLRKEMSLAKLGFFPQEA
UniProt Q15907: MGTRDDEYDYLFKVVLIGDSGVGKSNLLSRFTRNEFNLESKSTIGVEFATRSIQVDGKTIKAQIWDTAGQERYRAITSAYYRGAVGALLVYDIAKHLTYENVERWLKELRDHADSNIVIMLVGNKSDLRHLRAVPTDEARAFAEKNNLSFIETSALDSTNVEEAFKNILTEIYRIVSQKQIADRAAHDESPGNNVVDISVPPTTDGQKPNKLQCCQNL
UniProt P20337: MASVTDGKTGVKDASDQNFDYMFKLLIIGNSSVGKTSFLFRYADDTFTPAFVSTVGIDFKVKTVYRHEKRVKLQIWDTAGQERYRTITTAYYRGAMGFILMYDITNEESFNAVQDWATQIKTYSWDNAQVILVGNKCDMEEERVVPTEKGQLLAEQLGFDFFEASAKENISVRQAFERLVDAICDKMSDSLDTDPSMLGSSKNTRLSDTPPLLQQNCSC
UniProt O00194: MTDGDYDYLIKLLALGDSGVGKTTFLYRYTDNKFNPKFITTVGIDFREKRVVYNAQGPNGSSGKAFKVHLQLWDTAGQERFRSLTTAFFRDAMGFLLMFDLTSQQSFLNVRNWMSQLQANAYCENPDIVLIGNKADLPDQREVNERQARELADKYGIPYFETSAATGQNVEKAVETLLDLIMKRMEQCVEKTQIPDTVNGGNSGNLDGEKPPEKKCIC
UniProt Q96S21: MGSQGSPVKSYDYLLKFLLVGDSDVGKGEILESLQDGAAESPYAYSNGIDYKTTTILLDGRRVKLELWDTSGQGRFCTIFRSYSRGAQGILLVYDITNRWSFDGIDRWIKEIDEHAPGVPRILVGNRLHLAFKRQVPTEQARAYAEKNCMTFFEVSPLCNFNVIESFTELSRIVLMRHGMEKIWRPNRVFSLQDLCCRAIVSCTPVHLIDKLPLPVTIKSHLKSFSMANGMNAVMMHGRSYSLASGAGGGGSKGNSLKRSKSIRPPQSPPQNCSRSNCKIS
UniProt O95716: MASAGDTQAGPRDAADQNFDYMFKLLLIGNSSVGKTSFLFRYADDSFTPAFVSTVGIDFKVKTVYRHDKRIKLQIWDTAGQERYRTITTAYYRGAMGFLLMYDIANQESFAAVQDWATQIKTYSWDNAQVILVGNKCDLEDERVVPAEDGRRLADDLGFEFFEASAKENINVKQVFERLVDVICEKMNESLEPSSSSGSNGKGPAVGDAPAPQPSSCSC
UniProt P32322: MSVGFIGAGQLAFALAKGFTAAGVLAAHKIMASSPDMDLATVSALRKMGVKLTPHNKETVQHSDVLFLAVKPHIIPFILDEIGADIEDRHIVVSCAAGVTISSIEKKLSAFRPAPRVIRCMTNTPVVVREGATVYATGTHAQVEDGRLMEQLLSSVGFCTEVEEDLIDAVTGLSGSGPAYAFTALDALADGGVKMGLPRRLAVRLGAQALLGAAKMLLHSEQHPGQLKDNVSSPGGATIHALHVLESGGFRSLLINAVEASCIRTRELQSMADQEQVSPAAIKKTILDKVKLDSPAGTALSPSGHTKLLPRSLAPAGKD
UniProt Q96DA2: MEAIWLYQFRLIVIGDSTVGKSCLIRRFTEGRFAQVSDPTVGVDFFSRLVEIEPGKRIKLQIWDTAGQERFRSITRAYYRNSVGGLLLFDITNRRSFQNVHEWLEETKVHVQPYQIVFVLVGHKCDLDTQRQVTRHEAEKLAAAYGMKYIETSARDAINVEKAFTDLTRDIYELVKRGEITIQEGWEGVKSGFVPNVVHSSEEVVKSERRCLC
UniProt O60216: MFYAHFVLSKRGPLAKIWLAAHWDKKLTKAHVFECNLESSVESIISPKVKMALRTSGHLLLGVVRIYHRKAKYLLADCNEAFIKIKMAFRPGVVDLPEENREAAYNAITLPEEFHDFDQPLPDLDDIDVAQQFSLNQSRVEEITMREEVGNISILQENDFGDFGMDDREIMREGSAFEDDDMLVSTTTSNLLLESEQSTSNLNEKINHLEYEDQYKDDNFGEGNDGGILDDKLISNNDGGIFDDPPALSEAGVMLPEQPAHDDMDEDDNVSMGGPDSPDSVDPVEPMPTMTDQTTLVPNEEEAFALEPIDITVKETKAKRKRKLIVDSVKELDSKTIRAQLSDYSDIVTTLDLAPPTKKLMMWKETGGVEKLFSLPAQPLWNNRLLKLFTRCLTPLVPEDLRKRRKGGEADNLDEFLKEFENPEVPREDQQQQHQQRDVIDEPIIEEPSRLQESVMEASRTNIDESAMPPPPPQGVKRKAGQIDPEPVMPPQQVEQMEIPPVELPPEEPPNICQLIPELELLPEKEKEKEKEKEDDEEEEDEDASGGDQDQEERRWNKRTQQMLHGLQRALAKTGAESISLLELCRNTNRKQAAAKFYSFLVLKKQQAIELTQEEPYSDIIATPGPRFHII
UniProt Q96D70: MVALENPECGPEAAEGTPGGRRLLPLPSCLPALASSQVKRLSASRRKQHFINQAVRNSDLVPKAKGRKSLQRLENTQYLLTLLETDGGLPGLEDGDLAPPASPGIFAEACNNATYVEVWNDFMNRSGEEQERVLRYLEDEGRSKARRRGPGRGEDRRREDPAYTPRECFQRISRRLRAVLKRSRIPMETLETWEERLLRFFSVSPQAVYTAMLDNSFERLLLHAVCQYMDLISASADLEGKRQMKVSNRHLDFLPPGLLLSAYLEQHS
UniProt Q9BRQ0: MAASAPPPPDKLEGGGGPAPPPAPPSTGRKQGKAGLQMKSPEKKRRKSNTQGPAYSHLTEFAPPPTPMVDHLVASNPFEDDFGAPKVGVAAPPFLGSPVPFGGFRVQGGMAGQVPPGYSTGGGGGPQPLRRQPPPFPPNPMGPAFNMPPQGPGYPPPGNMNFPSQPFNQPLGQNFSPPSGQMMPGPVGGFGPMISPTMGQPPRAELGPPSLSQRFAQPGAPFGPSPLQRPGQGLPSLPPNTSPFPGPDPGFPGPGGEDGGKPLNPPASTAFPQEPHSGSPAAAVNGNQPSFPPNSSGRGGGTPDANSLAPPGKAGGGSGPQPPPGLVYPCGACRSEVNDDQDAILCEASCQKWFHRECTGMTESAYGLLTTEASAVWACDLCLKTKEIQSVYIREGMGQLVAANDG
UniProt Q9Y3P9: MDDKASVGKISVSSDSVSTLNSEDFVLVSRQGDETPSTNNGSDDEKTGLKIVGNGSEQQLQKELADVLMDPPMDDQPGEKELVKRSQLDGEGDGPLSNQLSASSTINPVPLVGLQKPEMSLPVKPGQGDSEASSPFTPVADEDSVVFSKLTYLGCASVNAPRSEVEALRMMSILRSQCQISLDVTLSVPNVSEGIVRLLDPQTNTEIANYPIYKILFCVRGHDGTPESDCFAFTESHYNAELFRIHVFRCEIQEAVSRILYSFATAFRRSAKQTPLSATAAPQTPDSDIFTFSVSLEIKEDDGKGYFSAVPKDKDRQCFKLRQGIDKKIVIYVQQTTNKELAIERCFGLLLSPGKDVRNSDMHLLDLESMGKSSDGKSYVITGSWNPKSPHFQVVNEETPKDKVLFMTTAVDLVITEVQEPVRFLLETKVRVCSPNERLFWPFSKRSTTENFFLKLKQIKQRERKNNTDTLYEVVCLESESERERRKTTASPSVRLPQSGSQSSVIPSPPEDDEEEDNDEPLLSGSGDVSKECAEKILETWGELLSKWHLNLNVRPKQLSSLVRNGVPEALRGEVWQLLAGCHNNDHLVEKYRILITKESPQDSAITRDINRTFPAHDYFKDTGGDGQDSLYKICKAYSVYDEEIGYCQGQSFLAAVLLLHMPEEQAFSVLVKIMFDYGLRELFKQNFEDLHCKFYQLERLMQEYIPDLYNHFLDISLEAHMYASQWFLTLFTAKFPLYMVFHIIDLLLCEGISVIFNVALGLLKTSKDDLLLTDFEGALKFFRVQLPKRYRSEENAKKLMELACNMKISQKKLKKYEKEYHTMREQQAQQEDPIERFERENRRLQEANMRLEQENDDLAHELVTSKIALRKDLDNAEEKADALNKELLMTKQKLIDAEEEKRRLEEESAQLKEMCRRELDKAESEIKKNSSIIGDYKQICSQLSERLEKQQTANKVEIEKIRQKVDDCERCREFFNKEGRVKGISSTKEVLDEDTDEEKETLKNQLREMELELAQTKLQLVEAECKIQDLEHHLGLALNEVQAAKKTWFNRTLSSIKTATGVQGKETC
UniProt O00391: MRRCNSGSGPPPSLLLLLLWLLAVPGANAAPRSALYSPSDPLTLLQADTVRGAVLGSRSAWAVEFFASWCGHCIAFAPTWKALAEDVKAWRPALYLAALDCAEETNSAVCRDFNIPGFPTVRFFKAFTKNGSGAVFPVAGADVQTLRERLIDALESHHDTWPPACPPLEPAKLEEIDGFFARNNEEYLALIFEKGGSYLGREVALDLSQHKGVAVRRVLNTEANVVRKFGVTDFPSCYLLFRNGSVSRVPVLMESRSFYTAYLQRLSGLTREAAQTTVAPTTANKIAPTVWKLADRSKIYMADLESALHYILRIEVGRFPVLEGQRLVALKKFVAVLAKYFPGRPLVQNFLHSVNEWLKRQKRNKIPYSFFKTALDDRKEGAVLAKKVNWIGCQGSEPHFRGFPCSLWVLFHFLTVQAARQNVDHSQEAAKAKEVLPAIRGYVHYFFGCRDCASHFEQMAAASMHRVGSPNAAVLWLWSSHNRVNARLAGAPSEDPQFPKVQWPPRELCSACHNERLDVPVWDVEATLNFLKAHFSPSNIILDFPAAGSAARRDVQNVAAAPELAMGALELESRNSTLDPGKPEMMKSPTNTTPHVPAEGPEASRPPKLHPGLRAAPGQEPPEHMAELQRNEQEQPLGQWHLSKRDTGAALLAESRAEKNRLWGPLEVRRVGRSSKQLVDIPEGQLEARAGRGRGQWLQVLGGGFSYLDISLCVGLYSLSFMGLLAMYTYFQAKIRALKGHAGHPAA

Tests used:
Test in all cases: log2 fold change, soluble protein after heating vs DMSO (PISA); higher = thermal stabilisation; K562 lysate, 10 uM; active = over 0.2 and 3.5 SD of the protein, either way, in both replicates (recomputed)
[1] = compound: C1=CC=C(C=C1)[C@H](COC2=CC3=C(C=C2)NC(=O)N3)NC(=O)C4=CC=CN(C4=O)CC5=CC(=C(C=C5)F)F
Procedure, shortened: (§1)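 Quantification was by TMTpro 16plex LC-MS/MS with equalised channel sums, applied to the supernatant after 21,000xg for 90 min. Samples were crude K562 extract at 1 mg/mL protein in PBS pH 7.4 with 1 mM MgCl2, treated with 10 μM compound for 30 min, heated for 3 min across 48°C-58°C, pooled and brought to 0.5% NP-40 at 4°C. Values are log-two fold changes in thermal stability relative to solvent controls, from duplicates.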

[2] = compound: CC1=C(SC2=C1C(=N[C@H](C3=NN=C(N32)C)CC(=O)N)C4=CC=C(C=C4)Cl)C
Procedure, shortened: as §1

[3] = compound: CC1=C2C(=CC=C1)N=C(N(C2=O)C3=CC=CC=C3C)CN4C=NC5=C(N=CN=C54)N
Procedure, shortened: as §1

[4] = compound: Cc1sc2c(c1C)C(c1ccc(Cl)cc1)=N[C@@H](CC(=O)OC(C)(C)C)c1nnc(C)n1-2
Procedure, shortened: as §1

[5] = compound: c1ccc([C@@H]2C[C@H]2NC2CCNCC2)cc1
Procedure, shortened: as §1

Measured: log2 fold change

RANBP1 (UniProt P43487)
inactive: [1] 0.003 | [2] -0.009 | [3] -0.005 | [4] 0.009 | [5] -0.038

RAP1GDS1 isoform 4 (UniProt P52306)
inactive: [1] 0.109 | [2] -0.086 | [5] -0.019

PYCARD isoform 2 (UniProt Q9ULZ3)
inactive: [1] -0.011 | [2] 0.015 | [5] 0.117

RALGAPA2 (UniProt Q2PPJ7)
inactive: [5] 0.211

RAB11FIP5, A0A1B0GTL5
inactive: [5] 0.158

RAD23A (UniProt P54725)
inactive: [1] -0.05 | [2] -0.067 | [3] -0.02 | [4] 0.003 | [5] -0.008

PYHIN1 (UniProt Q6K0P9)
inactive: [4] -0.059

RALGAPB isoform 3 (UniProt Q86X10)
inactive: [1] 0.107 | [2] 0.05 | [4] 0.189 | [5] 0.153

RAB3IL1 (UniProt Q8TBN0)
inactive: [1] 0.047 | [2] 0.008 | [3] 0.02 | [4] 0.007 | [5] 0.039

RAB11B (UniProt Q15907)
inactive: [1] -0.029 | [2] 0.01 | [3] 0.013 | [4] -0.002 | [5] -0.014

RAB3B (UniProt P20337)
inactive: [5] 0.083

RAB27B (UniProt O00194)
inactive: [3] 0.051 | [4] -0.078 | [5] -0.055

RAD51AP1 (UniProt Q96B01)
inactive: [1] 0.017 | [2] 0.116 | [4] 0.143 | [5] -0.024

RAB40C (UniProt Q96S21)
inactive: [1] 0.087 | [2] -0.006 | [3] 0.048 | [5] -0.074

RAB11FIP3 isoform 3 (UniProt O75154)
inactive: [4] 0.125

RAB3D (UniProt O95716)
inactive: [3] 0.104 | [4] -0.032

PYCR1 isoform 3 (UniProt P32322)
inactive: [1] 0.013 | [2] 0.069 | [4] 0

RAB39B (UniProt Q96DA2)
inactive: [1] 0.081 | [2] -0.051 | [5] -0.996

RAD21 (UniProt O60216)
inactive: [1] 0.013 | [2] 0.024 | [3] -0.004 | [4] 0.02 | [5] -0.03

R3HDM4 (UniProt Q96D70)
inactive: [3] -0.02 | [4] -0.096 | [5] 0.154

RALGPS2 (UniProt Q86X27)
inactive: [1] -0.074 | [2] -0.014 | [3] 0.121 | [5] -0.108

PYGO2 (UniProt Q9BRQ0)
inactive: [1] 0.064 | [2] 0.031 | [4] 0.024 | [5] 0.011

Random excerpt: two entries already listed.
PYGO2 (UniProt Q9BRQ0)
inactive: [1] 0.064 | [2] 0.031 | [4] 0.024 | [5] 0.011

R3HDM4 (UniProt Q96D70)
inactive: [3] -0.02 | [4] -0.096 | [5] 0.154

More entries

RAD54L (UniProt Q92698)
active: [5] -1.06
inactive: [1] -0.013 | [2] -0.031 | [4] -0.299

RABGAP1 (UniProt Q9Y3P9)
inactive: [1] 0.023 | [2] 0.013 | [3] 0.031 | [4] 0.003 | [5] -0.002

QSOX1 (UniProt O00391)
inactive: [4] 0.152 | [5] -0.066

NA (UniProt Q4G0T1)
inactive: [4] -0.027 | [5] -0.025

RAB1B (UniProt Q9H0U4)
inactive: [1] -0.015 | [2] 0.021 | [3] 0.056 | [4] 0.013 | [5] -0.17

RAD54B (UniProt Q9Y620)
inactive: [3] -0.023 | [4] -0.017

QSER1, A0A3B3IRW6
inactive: [3] 0.047 | [4] -0.027

RAD23A isoform 3 (UniProt P54725)
inactive: [5] -0.233

RAB28 (UniProt P51157)
inactive: [1] 0.007 | [2] 0.017 | [3] 0.02 | [4] -0.02 | [5] 0.02

RANGRF (UniProt Q9HD47)
inactive: [4] 0.093
